# Measurements published in paper PMC8384837.
# Positions count from the first letter of the chain named. This is one part of the list. For some of these results: At the low end of the ranking the order means little. For some of these results: Construct or isoform of the protein are uncertain.
# Legend:
# Details in all cases: yeast three-hybrid, YBZ-1, SC-Leu-His + 0.5 mM 3-AT, 4 days
# [1] = target: T1, PUM1 PUF domain R1-QFR R2-VFQ R7-NPG S863Q + R864F + Q867R + N899V + Y900F + S1079N + N1080P + E1083G (UniProt Q14671)
# T1 sequence: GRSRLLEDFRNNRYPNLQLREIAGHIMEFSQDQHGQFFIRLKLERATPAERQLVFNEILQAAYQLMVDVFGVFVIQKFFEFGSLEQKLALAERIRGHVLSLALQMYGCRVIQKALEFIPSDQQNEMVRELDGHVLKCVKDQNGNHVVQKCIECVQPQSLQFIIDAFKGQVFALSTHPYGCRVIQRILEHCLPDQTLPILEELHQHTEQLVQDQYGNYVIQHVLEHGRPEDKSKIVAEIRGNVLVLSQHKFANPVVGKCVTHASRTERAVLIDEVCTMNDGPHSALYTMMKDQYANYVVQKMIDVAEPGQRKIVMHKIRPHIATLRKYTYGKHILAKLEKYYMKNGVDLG
# [2] = target: T2, PUM1 PUF domain R3-THE R4-TFR R7-NPG C935T + R936H + Q939E + N971T + H972F + Q975R + S1079N + N1080P + E1083G (Homo sapiens) (UniProt Q14671)
# T2 sequence: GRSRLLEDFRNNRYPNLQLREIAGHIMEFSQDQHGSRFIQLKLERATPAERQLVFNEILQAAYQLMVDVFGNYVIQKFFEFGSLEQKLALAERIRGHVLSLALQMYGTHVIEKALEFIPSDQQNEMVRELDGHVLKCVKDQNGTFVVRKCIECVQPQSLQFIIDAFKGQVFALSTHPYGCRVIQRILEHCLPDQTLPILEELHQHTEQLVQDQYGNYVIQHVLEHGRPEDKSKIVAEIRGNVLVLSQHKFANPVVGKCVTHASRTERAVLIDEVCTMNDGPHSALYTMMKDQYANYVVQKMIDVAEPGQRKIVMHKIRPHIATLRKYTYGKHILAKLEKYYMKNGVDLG
# [3] = target: T3, PUM1 PUF domain R5-PHQ R6-SWD C1007P + R1008H + N1043S + Y1044W + Q1047D (UniProt Q14671)
# T3 sequence: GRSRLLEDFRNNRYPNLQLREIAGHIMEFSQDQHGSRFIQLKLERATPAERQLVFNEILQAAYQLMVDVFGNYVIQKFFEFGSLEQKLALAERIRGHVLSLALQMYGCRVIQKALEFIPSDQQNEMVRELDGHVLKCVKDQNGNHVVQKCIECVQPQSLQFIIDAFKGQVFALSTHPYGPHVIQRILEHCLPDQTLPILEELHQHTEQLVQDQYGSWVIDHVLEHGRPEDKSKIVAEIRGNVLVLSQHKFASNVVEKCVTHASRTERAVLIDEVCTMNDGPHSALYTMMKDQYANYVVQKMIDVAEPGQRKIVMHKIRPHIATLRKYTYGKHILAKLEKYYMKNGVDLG
# [4] = target: T4, PUM1 PUF domain R6-SWD R7-NPG N1043S + Y1044W + Q1047D + S1079N + N1080P + E1083G (UniProt Q14671)
# T4 sequence: T3 sequence with P180C, H181R, S252N, N253P, E256G
# [5] = target: T5, PUM1 PUF domain R3-THE R4-TFR R7-NPG C935T + R936H + Q939E + N971T + H972F + Q975R + S1079N + N1080P + E1083G (UniProt Q14671)
# T5 sequence: T2 sequence
# [6] = target: T6, PUM1 PUF domain R6-SWD R7-NPG N1043S + Y1044W + Q1047D + S1079N + N1080P + E1083G (Homo sapiens) (UniProt Q14671)
# T6 sequence: T3 sequence with P180C, H181R, S252N, N253P, E256G
sequence,measurement,setting,value
GGCUAGAACUAGUGGAUCCCCCGGCGCCCGGCGGCUCGAGCCCGGGUAAGGUCAGGAAGUCUGCAUGCCGCCGGGCGCCAUGCCUGCAGGUCGACUCUAGAAAACAUG,binding signal (log2 enrichment (interaction score)),[1],-6.11
same,binding signal (log2 enrichment (interaction score)),[2],< -1.6
GGCUAGAACUAGUGGAUCCCCCGGCGCCCGGCGGCUCGAGCCCGGGUAAGAAAACAUAGUCUGCAUGCCGCCGGGCGCCAUGCCUGCAGGUCGACUCUAGAAAACAUG,binding signal (log2 enrichment (interaction score)),[1],-5.44
same,binding signal (log2 enrichment (interaction score)),[2],< -1.7
same,binding signal (log2 enrichment (interaction score)),[3],-7.34
GGCUAGAACUAGUGGAUCCCCCGGCGCCCGGCGGCUCGAGCCCGGGUAAGUUUUAAAAGUCUGCAUGCCGCCGGGCGCCAUGCCUGCAGGUCGACUCUAGAAAACAUG,binding signal (log2 enrichment (interaction score)),[1],-5.46
same,binding signal (log2 enrichment (interaction score)),[2],< -1.89
same,binding signal (log2 enrichment (interaction score)),[3],< -7.35
GGCUAGAACUAGUGGAUCCCCCGGCGCCCGGCGGCUCGAGCCCGGGUAAGUUGGGAUGGUCUGCAUGCCGCCGGGCGCCAUGCCUGCAGGUCGACUCUAGAAAACAUG,binding signal (log2 enrichment (interaction score)),[1],-7.07
same,binding signal (log2 enrichment (interaction score)),[2],-1.68
GGCUAGAACUAGUGGAUCCCCCGGCGCCCGGCGGCUCGAGCCCGGGUAAGUGGGAGUAGUCUGCAUGCCGCCGGGCGCCAUGCCUGCAGGUCGACUCUAGAAAACAUG,binding signal (log2 enrichment (interaction score)),[1],-6.35
same,binding signal (log2 enrichment (interaction score)),[2],< -0.46
same,binding signal (log2 enrichment (interaction score)),[3],< -7.3
GGCUAGAACUAGUGGAUCCCCCGGCGCCCGGCGGCUCGAGCCCGGGUAAGUUGACAAUGUCUGCAUGCCGCCGGGCGCCAUGCCUGCAGGUCGACUCUAGAAAACAUG,binding signal (log2 enrichment (interaction score)),[1],-6.44
same,binding signal (log2 enrichment (interaction score)),[2],< -1.13
same,binding signal (log2 enrichment (interaction score)),[3],< -7.46
GGCUAGAACUAGUGGAUCCCCCGGCGCCCGGCGGCUCGAGCCCGGGUAAGUUUGCGUUGUCUGCAUGCCGCCGGGCGCCAUGCCUGCAGGUCGACUCUAGAAAACAUG,binding signal (log2 enrichment (interaction score)),[1],< -5.59
same,binding signal (log2 enrichment (interaction score)),[2],-1.87
GGCUAGAACUAGUGGAUCCCCCGGCGCCCGGCGGCUCGAGCCCGGGUAAGUUGUACAAGUCUGCAUGCCGCCGGGCGCCAUGCCUGCAGGUCGACUCUAGAAAACAUG,binding signal (log2 enrichment (interaction score)),[1],< -6.16
same,binding signal (log2 enrichment (interaction score)),[2],-1.63
same,binding signal (log2 enrichment (interaction score)),[3],-8.58
same,binding signal (log2 enrichment (interaction score)),[4],-2.86
GGCUAGAACUAGUGGAUCCCCCGGCGCCCGGCGGCUCGAGCCCGGGUAAGAUGAAGAUGUCUGCAUGCCGCCGGGCGCCAUGCCUGCAGGUCGACUCUAGAAAACAUG,binding signal (log2 enrichment (interaction score)),[1],-6.5
same,binding signal (log2 enrichment (interaction score)),[5],< -2.34
same,binding signal (log2 enrichment (interaction score)),[3],< -7.2
GGCUAGAACUAGUGGAUCCCCCGGCGCCCGGCGGCUCGAGCCCGGGUAAGAUUAAAAUGUCUGCAUGCCGCCGGGCGCCAUGCCUGCAGGUCGACUCUAGAAAACAUG,binding signal (log2 enrichment (interaction score)),[1],< -5.81
same,binding signal (log2 enrichment (interaction score)),[5],-2.03
GGCUAGAACUAGUGGAUCCCCCGGCGCCCGGCGGCUCGAGCCCGGGUAAGCCGAUAUCGUCUGCAUGCCGCCGGGCGCCAUGCCUGCAGGUCGACUCUAGAAAACAUG,binding signal (log2 enrichment (interaction score)),[1],-5.5
same,binding signal (log2 enrichment (interaction score)),[3],< -7.19
GGCUAGAACUAGUGGAUCCCCCGGCGCCCGGCGGCUCGAGCCCGGGUAAGAGUAAAACGUCUGCAUGCCGCCGGGCGCCAUGCCUGCAGGUCGACUCUAGAAAACAUG,binding signal (log2 enrichment (interaction score)),[1],-4.9
same,binding signal (log2 enrichment (interaction score)),[3],-7.52
same,binding signal (log2 enrichment (interaction score)),[6],-1.12
GGCUAGAACUAGUGGAUCCCCCGGCGCCCGGCGGCUCGAGCCCGGGUAAGUUGCAAACGUCUGCAUGCCGCCGGGCGCCAUGCCUGCAGGUCGACUCUAGAAAACAUG,binding signal (log2 enrichment (interaction score)),[1],-5.93
same,binding signal (log2 enrichment (interaction score)),[3],< -7.54
GGCUAGAACUAGUGGAUCCCCCGGCGCCCGGCGGCUCGAGCCCGGGUAAGAUAGAGUAGUCUGCAUGCCGCCGGGCGCCAUGCCUGCAGGUCGACUCUAGAAAACAUG,binding signal (log2 enrichment (interaction score)),[1],-7.12
same,binding signal (log2 enrichment (interaction score)),[3],-8.4
GGCUAGAACUAGUGGAUCCCCCGGCGCCCGGCGGCUCGAGCCCGGGUAAGUUGGAAAAGUCUGCAUGCCGCCGGGCGCCAUGCCUGCAGGUCGACUCUAGAAAACAUG,binding signal (log2 enrichment (interaction score)),[1],< -5.89
same,binding signal (log2 enrichment (interaction score)),[3],-5.26
GGCUAGAACUAGUGGAUCCCCCGGCGCCCGGCGGCUCGAGCCCGGGUAAGGGUAAGUGGUCUGCAUGCCGCCGGGCGCCAUGCCUGCAGGUCGACUCUAGAAAACAUG,binding signal (log2 enrichment (interaction score)),[1],-5.94
same,binding signal (log2 enrichment (interaction score)),[3],-7.54

# A different layout for some results above:
sequence | measurement | setting | value
GGCUAGAACUAGUGGAUCCCCCGGCGCCCGGCGGCUCGAGCCCGGGUAAGUUUGCGUUGUCUGCAUGCCGCCGGGCGCCAUGCCUGCAGGUCGACUCUAGAAAACAUG | binding signal (log2 enrichment (interaction score)) | [1] | < -5.59
GGCUAGAACUAGUGGAUCCCCCGGCGCCCGGCGGCUCGAGCCCGGGUAAGAUAGAGUAGUCUGCAUGCCGCCGGGCGCCAUGCCUGCAGGUCGACUCUAGAAAACAUG | binding signal (log2 enrichment (interaction score)) | [3] | -8.4
